Article PMC4728290
Results are given in words; binding and its absence hold for the method and conditions named. In cells and extracts the contact can be indirect. Some entries that bind do so weakly or less than the wild type.

By UniProt entry, the sequences of proteins in these tests, tags left out. Residues count along the entry.
UniProt P06213, residues 28-1382: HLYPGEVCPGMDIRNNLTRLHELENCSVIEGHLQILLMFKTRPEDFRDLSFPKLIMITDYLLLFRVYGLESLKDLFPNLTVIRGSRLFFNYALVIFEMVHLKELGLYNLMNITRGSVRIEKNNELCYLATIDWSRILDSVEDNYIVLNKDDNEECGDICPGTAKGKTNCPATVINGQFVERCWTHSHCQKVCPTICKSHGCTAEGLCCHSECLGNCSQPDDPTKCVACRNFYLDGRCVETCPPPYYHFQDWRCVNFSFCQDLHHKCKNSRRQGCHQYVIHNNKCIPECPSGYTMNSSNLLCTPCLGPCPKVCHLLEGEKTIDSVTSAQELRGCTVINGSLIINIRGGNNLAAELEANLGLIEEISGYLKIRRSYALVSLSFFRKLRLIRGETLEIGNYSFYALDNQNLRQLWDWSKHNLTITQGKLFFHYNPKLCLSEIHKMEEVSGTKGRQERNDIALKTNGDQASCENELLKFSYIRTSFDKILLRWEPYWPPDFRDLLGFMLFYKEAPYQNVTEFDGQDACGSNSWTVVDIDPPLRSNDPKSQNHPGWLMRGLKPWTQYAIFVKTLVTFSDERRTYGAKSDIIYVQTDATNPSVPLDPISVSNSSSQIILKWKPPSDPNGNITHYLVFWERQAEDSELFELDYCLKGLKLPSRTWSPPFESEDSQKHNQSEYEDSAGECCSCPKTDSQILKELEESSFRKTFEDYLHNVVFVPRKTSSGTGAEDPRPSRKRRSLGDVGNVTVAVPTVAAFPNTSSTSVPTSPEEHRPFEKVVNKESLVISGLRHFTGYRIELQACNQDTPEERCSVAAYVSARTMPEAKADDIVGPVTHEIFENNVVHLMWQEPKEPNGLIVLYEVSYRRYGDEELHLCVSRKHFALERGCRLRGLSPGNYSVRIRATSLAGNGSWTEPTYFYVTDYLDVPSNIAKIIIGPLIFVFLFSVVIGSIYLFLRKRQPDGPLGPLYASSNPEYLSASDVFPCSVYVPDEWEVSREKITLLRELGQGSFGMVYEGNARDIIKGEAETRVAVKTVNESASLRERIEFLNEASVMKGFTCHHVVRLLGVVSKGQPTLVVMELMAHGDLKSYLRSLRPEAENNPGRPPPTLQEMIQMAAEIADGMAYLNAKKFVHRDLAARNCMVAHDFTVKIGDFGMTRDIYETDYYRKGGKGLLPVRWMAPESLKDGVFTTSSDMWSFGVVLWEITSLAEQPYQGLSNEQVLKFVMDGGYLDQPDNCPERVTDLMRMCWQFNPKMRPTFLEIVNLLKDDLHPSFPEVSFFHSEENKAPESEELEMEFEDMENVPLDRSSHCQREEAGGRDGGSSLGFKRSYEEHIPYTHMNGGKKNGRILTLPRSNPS
UniProt P62993: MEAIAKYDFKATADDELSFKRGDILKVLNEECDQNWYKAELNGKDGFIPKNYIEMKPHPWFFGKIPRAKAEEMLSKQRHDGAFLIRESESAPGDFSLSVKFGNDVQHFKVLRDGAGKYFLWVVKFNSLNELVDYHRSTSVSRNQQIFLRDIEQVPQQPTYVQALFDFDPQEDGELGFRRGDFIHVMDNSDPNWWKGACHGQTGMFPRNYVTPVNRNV

Biological target: human insulin receptor fused with Renilla luciferase 8 (human) (UniProt P06213)
Test: FRET or BRET; BRET in real time in live HEK293 cells co-expressing hIR–Rluc8 (donor) and IRS1–YFP or Grb2–Venus (acceptor); cells in PBS, coelenterazine-h 5 uM; basal or stimulated with bovine insulin (100 nM or 0.001-10,000 nM); with or without pre-treatment with defatted camel milk or its fractions (30 min, 37°C)

growth factor receptor-bound protein 2 fused with Venus (from UniProt P62993 1-217)
binding: binds
